Results: PMC3447965
No constants are given. Whether binding was seen depends on the method and setting. In cells and extracts the contact can be indirect. Some binding calls cover weakened binding; strength is not graded here. For some of these results: Tags and fused reporters may be left off the sequences shown.

T1: FLAG-tagged DOXA-1 (C. elegans) (UniProt P34298)
T1 sequence: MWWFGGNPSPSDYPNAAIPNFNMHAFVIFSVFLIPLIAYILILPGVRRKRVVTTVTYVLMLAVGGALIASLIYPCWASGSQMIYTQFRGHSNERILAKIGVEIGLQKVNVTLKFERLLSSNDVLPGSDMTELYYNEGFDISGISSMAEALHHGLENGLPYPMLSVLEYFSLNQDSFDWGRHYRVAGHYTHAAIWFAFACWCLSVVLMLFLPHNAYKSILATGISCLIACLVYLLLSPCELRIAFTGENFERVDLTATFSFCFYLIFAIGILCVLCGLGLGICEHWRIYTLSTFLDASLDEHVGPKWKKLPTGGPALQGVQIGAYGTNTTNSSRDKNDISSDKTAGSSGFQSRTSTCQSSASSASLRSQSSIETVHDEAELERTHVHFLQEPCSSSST

T2: (His)6Xpress-tagged TSP-15 (C. elegans) (UniProt Q9XVM9)
T2 sequence: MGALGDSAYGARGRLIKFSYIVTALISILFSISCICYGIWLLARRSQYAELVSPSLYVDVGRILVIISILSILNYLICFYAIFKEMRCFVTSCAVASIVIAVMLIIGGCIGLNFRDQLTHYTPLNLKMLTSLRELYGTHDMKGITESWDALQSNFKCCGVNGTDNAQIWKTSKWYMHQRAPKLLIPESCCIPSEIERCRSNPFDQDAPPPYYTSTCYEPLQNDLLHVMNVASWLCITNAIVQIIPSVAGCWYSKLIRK

T3: DOXA-1::Venus fusion protein (C. elegans) (UniProt P34298)
T3 sequence: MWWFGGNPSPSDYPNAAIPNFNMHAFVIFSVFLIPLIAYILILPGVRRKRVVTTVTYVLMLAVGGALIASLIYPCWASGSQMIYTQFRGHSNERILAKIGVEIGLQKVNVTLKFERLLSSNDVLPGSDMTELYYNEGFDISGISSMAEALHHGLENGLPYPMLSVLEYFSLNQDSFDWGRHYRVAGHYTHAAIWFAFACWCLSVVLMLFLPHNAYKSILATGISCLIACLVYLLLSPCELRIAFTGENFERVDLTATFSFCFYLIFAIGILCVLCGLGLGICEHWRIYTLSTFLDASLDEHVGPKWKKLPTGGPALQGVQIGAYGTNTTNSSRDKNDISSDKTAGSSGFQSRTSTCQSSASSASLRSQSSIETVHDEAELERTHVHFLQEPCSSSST

T4: Endogenous TSP-15 (C. elegans (endogenous in worms)) (UniProt Q9XVM9)
T4 sequence: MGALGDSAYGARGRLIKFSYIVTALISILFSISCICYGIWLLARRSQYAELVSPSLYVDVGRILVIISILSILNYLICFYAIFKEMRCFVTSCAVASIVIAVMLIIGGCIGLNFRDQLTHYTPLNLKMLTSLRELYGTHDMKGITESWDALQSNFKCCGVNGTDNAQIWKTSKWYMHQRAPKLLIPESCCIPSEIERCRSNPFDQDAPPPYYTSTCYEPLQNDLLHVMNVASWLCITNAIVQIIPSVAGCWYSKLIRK

T5: Xpress-tagged TSP-15 (in OB129 worms) (C. elegans) (UniProt Q9XVM9)
T5 sequence: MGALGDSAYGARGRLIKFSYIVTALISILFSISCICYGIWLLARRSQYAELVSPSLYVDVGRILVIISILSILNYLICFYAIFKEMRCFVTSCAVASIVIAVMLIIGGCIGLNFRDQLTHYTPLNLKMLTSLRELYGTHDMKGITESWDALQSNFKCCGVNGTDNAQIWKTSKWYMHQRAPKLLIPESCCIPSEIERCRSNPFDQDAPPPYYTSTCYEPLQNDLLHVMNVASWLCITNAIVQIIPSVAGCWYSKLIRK

B1: BLI-3 (enzyme, UniProt O61213 22-1497)
chain: IQQNEEFQRYDGWYNNLANSEWGSAGSRLHRDARSYYSDGVYSVNNSLPSARELSDILFKGESGIPNTRGCTTLLAFFSQVVAYEIMQSNGVSCPLETLKIQVPLCDNVFDKECEGKTEIPFTRAKYDKATGNGLNSPREQINERTSWIDGSFIYGTTQPWVSSLRSFKQGRLAEGVPGYPPLNNPHIPLNNPAPPQVHRLMSPDRLFMLGDSRVNENPGLLSFGLILFRWHNYNANQIHREHPDWTDEQIFQAARRLVIASMQKIIAYDFVPGLLGEDVRLSNYTKYMPHVPPGISHAFGAAAFRFPHSIVPPAMLLRKRGNKCEFRTEVGGYPALRLCQNWWNAQDIVKEYSVDEIILGMASQIAERDDNIVVEDLRDYIFGPMHFSRLDVVASSIMRGRDNGVPPYNELRRTFGLAPKTWETMNEDFYKKHTAKVEKLKELYGGNILYLDAYVGGMLEGGENGPGELFKEIIKDQFTRIRDGDRFWFENKLNGLFTDEEVQMIHSITLRDIIKATTDIDETMLQKDVFFFKEGDPCPQPFQVNTTGLEPCVPFMQSTYWTDNDTTYVFTLIGLACVPLICYGIGRYLVNRRIAIGHNSACDSLTTDFANDDCGAKGDIYGVNALEWLQEEYIRQVRIEIENTTLAVKKPRGGILRKIRFETGQKIELFHSMPNPSAMHGPFVLLSQKNNHHLVIRLSSDRDLSKFLDQIRQAASGINAEVIIKDEENSILLSQAITKERRQDRLDLFFREAYAKAFNDSELQDSETSFDSSNDDILNETISREELASAMGMKANNEFVKRMFAMTAKHNEDSLSFNEFLTVLREFVNAPQKQKLQTLFKMCDLEGKNKVLRKDLAELVKSLNQTAGVHITESVQLRLFNEVLHYAGVSNDAKYLTYDDFNALFSDIPDKQPVGLPFNRKNYQPSIGETSSLNSFAVVDRSINSSAPLTLIHKVSAFLETYRQHVFIVFCFVAINLVLFFERFWHYRYMAENRDLRRVMGAGIAITRGAAGALSFCMALILLTVCRNIITLLRETVIAQYIPFDSAIAFHKIVALFAAFWATLHTVGHCVNFYHVGTQSQEGLACLFQEAFFGSNFLPSISYWFFSTITGLTGIALVAVMCIIYVFALPCFIKRAYHAFRLTHLLNIAFYALTLLHGLPKLLDSPKFGYYVVGPIVLFVIDRIIGLMQYYKKLEIVNAEILPSDIIYIEYRRPREFKYKSGQWVTVSSPSISCTFNESHAFSIASSPQDENMKLYIKAVGPWTWKLRSELIRSLNTGSPFPLIHMKGPYGDGNQEWMDYEVAIMVGAGIGVTPYASTLVDLVQRTSSDSFHRVRCRKVYFLWVCSTHKNYEWFVDVLKNVEDQARSGILETHIFVTQTFHKFDLRTTMLYICEKHFRATNSGISMFTGLHAKNHFGRPNFKAFFQFIQSEHKEQSKIGVFSCGPVNLNESIAEGCADANRQRDAPSFAHRFETF
B2: (His)6Xpress-tagged TSP-15 (protein, UniProt Q9XVM9 1-258)
chain: MGALGDSAYGARGRLIKFSYIVTALISILFSISCICYGIWLLARRSQYAELVSPSLYVDVGRILVIISILSILNYLICFYAIFKEMRCFVTSCAVASIVIAVMLIIGGCIGLNFRDQLTHYTPLNLKMLTSLRELYGTHDMKGITESWDALQSNFKCCGVNGTDNAQIWKTSKWYMHQRAPKLLIPESCCIPSEIERCRSNPFDQDAPPPYYTSTCYEPLQNDLLHVMNVASWLCITNAIVQIIPSVAGCWYSKLIRK
B3: BLI-3 (in worms) (enzyme, UniProt O61213 22-1497)
chain: IQQNEEFQRYDGWYNNLANSEWGSAGSRLHRDARSYYSDGVYSVNNSLPSARELSDILFKGESGIPNTRGCTTLLAFFSQVVAYEIMQSNGVSCPLETLKIQVPLCDNVFDKECEGKTEIPFTRAKYDKATGNGLNSPREQINERTSWIDGSFIYGTTQPWVSSLRSFKQGRLAEGVPGYPPLNNPHIPLNNPAPPQVHRLMSPDRLFMLGDSRVNENPGLLSFGLILFRWHNYNANQIHREHPDWTDEQIFQAARRLVIASMQKIIAYDFVPGLLGEDVRLSNYTKYMPHVPPGISHAFGAAAFRFPHSIVPPAMLLRKRGNKCEFRTEVGGYPALRLCQNWWNAQDIVKEYSVDEIILGMASQIAERDDNIVVEDLRDYIFGPMHFSRLDVVASSIMRGRDNGVPPYNELRRTFGLAPKTWETMNEDFYKKHTAKVEKLKELYGGNILYLDAYVGGMLEGGENGPGELFKEIIKDQFTRIRDGDRFWFENKLNGLFTDEEVQMIHSITLRDIIKATTDIDETMLQKDVFFFKEGDPCPQPFQVNTTGLEPCVPFMQSTYWTDNDTTYVFTLIGLACVPLICYGIGRYLVNRRIAIGHNSACDSLTTDFANDDCGAKGDIYGVNALEWLQEEYIRQVRIEIENTTLAVKKPRGGILRKIRFETGQKIELFHSMPNPSAMHGPFVLLSQKNNHHLVIRLSSDRDLSKFLDQIRQAASGINAEVIIKDEENSILLSQAITKERRQDRLDLFFREAYAKAFNDSELQDSETSFDSSNDDILNETISREELASAMGMKANNEFVKRMFAMTAKHNEDSLSFNEFLTVLREFVNAPQKQKLQTLFKMCDLEGKNKVLRKDLAELVKSLNQTAGVHITESVQLRLFNEVLHYAGVSNDAKYLTYDDFNALFSDIPDKQPVGLPFNRKNYQPSIGETSSLNSFAVVDRSINSSAPLTLIHKVSAFLETYRQHVFIVFCFVAINLVLFFERFWHYRYMAENRDLRRVMGAGIAITRGAAGALSFCMALILLTVCRNIITLLRETVIAQYIPFDSAIAFHKIVALFAAFWATLHTVGHCVNFYHVGTQSQEGLACLFQEAFFGSNFLPSISYWFFSTITGLTGIALVAVMCIIYVFALPCFIKRAYHAFRLTHLLNIAFYALTLLHGLPKLLDSPKFGYYVVGPIVLFVIDRIIGLMQYYKKLEIVNAEILPSDIIYIEYRRPREFKYKSGQWVTVSSPSISCTFNESHAFSIASSPQDENMKLYIKAVGPWTWKLRSELIRSLNTGSPFPLIHMKGPYGDGNQEWMDYEVAIMVGAGIGVTPYASTLVDLVQRTSSDSFHRVRCRKVYFLWVCSTHKNYEWFVDVLKNVEDQARSGILETHIFVTQTFHKFDLRTTMLYICEKHFRATNSGISMFTGLHAKNHFGRPNFKAFFQFIQSEHKEQSKIGVFSCGPVNLNESIAEGCADANRQRDAPSFAHRFETF
B4: Endogenous TSP-15 (protein, UniProt Q9XVM9 1-258)
chain: MGALGDSAYGARGRLIKFSYIVTALISILFSISCICYGIWLLARRSQYAELVSPSLYVDVGRILVIISILSILNYLICFYAIFKEMRCFVTSCAVASIVIAVMLIIGGCIGLNFRDQLTHYTPLNLKMLTSLRELYGTHDMKGITESWDALQSNFKCCGVNGTDNAQIWKTSKWYMHQRAPKLLIPESCCIPSEIERCRSNPFDQDAPPPYYTSTCYEPLQNDLLHVMNVASWLCITNAIVQIIPSVAGCWYSKLIRK

Columns and labels:
[1] = target: T1, FLAG-tagged DOXA-1 (C. elegans); test: co-IP; COS-7 stable transfectants of Xpress::TSP-15, DOXA-1::FLAG or both, BLI-3 transiently expressed; 1% CHAPS lysate (20 mM Tris-HCl, 150 mM NaCl, 2 mM EDTA, pH 7.5); precipitated with anti-FLAG M2 beads or anti-TSP-15 (2C2) agarose, immunoblot
[2] = target: T2, (His)6Xpress-tagged TSP-15 (C. elegans); test: as above
[3] = target: T3, DOXA-1::Venus fusion protein (C. elegans); test: co-IP; C. elegans lysate (N2, OB129, OB218), sonicated, 1% Triton X-100; precipitated with rat anti-TSP-15 or mouse anti-GFP antibody; normal rat or mouse IgG as negative control; immunoblot
[4] = target: T4, Endogenous TSP-15 (C. elegans (endogenous in worms)); test: as above
[5] = target: T5, Xpress-tagged TSP-15 (in OB129 worms) (C. elegans); test: as above

| Binder | binding [1] | binding [2] | binding [3] | binding [4] | binding [5] |
| --- | --- | --- | --- | --- | --- |
| B1 | binds | binds |  |  |  |
| B2 | binds |  |  |  |  |
| B3 |  |  | binds | binds | binds |
| B4 |  |  | binds |  |  |
